In PubChem BioAssay AID1671190 (National Center for Advancing Translational Sciences (NCATS), 2021):
Among all 580,000 compounds or so, about 6,100 (1.1%) were called active. This list was built around the results that the source calls inconclusive (neither active nor inactive); the mix of calls is not that of the screen. Calls come from the whole dose curve; as a rule, active = well fitted inhibition curve with a large enough effect; inconclusive = small, poorly fitted or top-dose-only effect, or another doubt; inactive = no such curve, though single readings can be large or run the other way. Potencies beside an inconclusive call are fits to weak or partial responses and may not hold up.

Amino acid sequences for entries named in this document (tags omitted). A change or cut given only in a name is not applied to a line headed by its entry.
UniProt P18054: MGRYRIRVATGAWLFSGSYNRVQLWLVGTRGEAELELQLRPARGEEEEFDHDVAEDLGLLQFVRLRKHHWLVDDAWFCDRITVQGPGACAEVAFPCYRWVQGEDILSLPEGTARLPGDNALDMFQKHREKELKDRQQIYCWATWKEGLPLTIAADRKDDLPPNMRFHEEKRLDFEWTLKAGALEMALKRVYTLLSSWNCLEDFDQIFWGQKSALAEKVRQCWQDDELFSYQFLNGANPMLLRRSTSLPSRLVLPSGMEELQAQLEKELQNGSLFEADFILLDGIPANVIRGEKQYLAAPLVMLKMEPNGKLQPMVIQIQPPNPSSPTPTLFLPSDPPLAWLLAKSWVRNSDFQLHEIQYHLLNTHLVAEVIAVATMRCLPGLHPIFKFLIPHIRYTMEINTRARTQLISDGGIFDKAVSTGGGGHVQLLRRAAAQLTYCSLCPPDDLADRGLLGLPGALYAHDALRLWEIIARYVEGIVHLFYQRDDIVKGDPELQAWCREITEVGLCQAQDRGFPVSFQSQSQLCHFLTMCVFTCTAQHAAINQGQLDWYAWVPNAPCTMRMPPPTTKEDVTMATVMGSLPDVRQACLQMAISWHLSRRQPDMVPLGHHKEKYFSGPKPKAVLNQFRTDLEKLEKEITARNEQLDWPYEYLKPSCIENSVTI

Molecular target: Polyunsaturated fatty acid lipoxygenase ALOX12 (Homo sapiens) (UniProt P18054)
Experiment: Primary qHTS assay for inhibitors of human arachidonate 12S-lipoxygenase (ALOX12): Round 2
Details: purified 12hLO, xylenol orange hydroperoxide absorbance; activity change, negative = inhibition: at 108 µM (top of the series) unless noted
Summary of the method: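 Purified human 12hLO (150 nM final) in 25 mM Hepes, 0.01% Triton X-100, pH 7.0 was preincubated 15 min at room temperature with compound. Then 40 uM arachidonic acid was added, 30 min. Hydroperoxide was read by Fe-XO absorbance ratio 573/405 nm.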
% is set by controls: 0 for no effect and ±100 for the full control effect; potency is the fitted concentration of half-maximal effect.

SMILES	Potency	activity change, negative = inhibition
O=C(c1cc(-c2cccc(O)c2)on1)N1CCCC1	inactive	–
Cc1ccc2c(ccn3cc4c(c(=O)n(C)c(=O)n4C)c23)c1	inactive	–
COc1ccc(N2CCN(C(=O)COC(=O)CC(NC(N)=O)c3ccc(Cl)cc3)CC2)cc1 (stereo unspecified)	inconclusive: 112 µM [inhibitor, partial curve, poor fit]	–
Cc1ccccc1Nc1c(-c2ccc(Br)o2)nc2ccc(Cl)cn12	inconclusive: 89.1 µM [inhibitor, partial curve, poor fit]	–
Cc1nn(CC(=O)Nc2nc3c(C)cccc3s2)c(=O)c2ccccc12	inactive	–
Cc1ccc(C(=O)Nc2sc(C)c(C)c2C(=O)c2ccccc2)cc1	inconclusive: 50.1 µM [inhibitor, partial curve, poor fit]	–
Cc1ccc(CCC(=O)Nc2ccc(N(C)C)cc2)o1	–	inconclusive: -32.4% [inhibitor]
COCC(C)NC(C(=O)Nc1cccc(C(C)=O)c1)c1ccccc1 (stereo unspecified)	inactive	–
CCCCn1c(-c2csc(CC)c2)n[nH]c1=S	active: 50.1 µM	–
Cc1ccc(NC(=O)CCOc2cc(C)ccc2C)c(Br)c1	inactive	–
COc1ccc(N(C)S(=O)(=O)c2cccc(C(=O)NCC3CCCCC3)c2)cc1	inactive	–
CCc1nc(OCCN(C)C)c2oc3ccccc3c2n1	inconclusive: 15.8 µM [inhibitor, partial curve, poor fit]	–
COc1cc(C(=O)NC(=S)Nc2ccccc2[N+](=O)[O-])cc(OC)c1OC	inconclusive: 39.8 µM [inhibitor, partial curve]	–
Cc1nc(-c2ccc(Cl)cc2)sc1C1(C)CC(c2ccccc2)=NO1 (stereo unspecified)	inconclusive: 79.4 µM [inhibitor, single point]	–
COc1ccc(C(C)NC(=O)CCOc2ccc(Cl)cc2)cc1F (stereo unspecified)	inactive	–
COc1ccc2[nH]c(=O)c(-c3noc(-c4cccs4)n3)cc2c1	inconclusive: 44.7 µM [inhibitor, partial curve, poor fit]	–
CCc1ccc(CN2CCC(CO)(CN3CCCC3)CC2)cc1	inactive	–
CN1CCN(S(=O)(=O)c2cccc(C(=O)N(C)CC(=O)Nc3ccc(F)c(F)c3F)c2)CC1	inconclusive: 70.8 µM [inhibitor, partial curve, poor fit]	–
CCCc1ccc(-c2cc(NC(=O)Cc3c(C)[nH]c4ccccc34)ccc2N(C)c2cccnc2)cc1	inconclusive: 8.91 µM [inhibitor, full curve, poor fit]	–
Cc1ccc(Nc2nc(-c3cccnc3)nc3ccccc23)cc1C	inconclusive: 39.8 µM [inhibitor, partial curve, poor fit]	–
CCCCCCC/C=C/C=O	inactive	–
O=C(Cn1cnc2nc(N3CCOCC3)sc2c1=O)Nc1ccccc1	inactive	–

Four entries from above, comma-delimited:
SMILES,Potency,"activity change, negative = inhibition"
Cc1ccc2c(ccn3cc4c(c(=O)n(C)c(=O)n4C)c23)c1,inactive,–
COc1ccc(N2CCN(C(=O)COC(=O)CC(NC(N)=O)c3ccc(Cl)cc3)CC2)cc1 (stereo unspecified),"inconclusive: 112 µM [inhibitor, partial curve, poor fit]",–
Cc1ccccc1Nc1c(-c2ccc(Br)o2)nc2ccc(Cl)cn12,"inconclusive: 89.1 µM [inhibitor, partial curve, poor fit]",–
Cc1nn(CC(=O)Nc2nc3c(C)cccc3s2)c(=O)c2ccccc12,inactive,–

Following part:

SMILES	Potency	activity change, negative = inhibition
CCNC(=S)Nc1cccc(S(=O)(=O)Nc2ccccc2OC)c1	inactive	–
COc1ccccc1-c1nn2c(C3COc4ccccc4O3)nnc2s1 (stereo unspecified)	inconclusive: 2.51 µM [inhibitor, full curve, poor fit]	–
COc1cccc(CN2CCCC(Cc3ncc(C)n3Cc3ccccc3)C2)c1 (stereo unspecified)	inconclusive: 89.1 µM [inhibitor, single point]	–
Cc1cc(C)cc(NC(=S)NCc2cccn2C)c1	inconclusive: 35.5 µM [inhibitor, partial curve, poor fit]	–
CC(=O)Nc1ccc(NC(=O)c2ccc3ccccc3n2)cc1	inconclusive: 1.41 µM [inhibitor, full curve, poor fit]	–
CCC(CC)C(=O)NC1CCN(c2cnn(CCOC)c(=O)c2)CC1	inconclusive: 10 µM [inhibitor, partial curve, poor fit]	–
O=C(O)CCc1ccc(-c2ccccc2)n1CC(=O)Nc1cccc(C(F)(F)F)c1	inconclusive: 50.1 µM [inhibitor, partial curve, poor fit]	–
CCOC(=O)Cc1ccc(NC(=O)N2CCC(CN3CCCCCC3)CC2)cc1	inconclusive: 63.1 µM [inhibitor, partial curve, poor fit]	–
CN(CC(=O)Nc1ccccc1C(F)(F)F)C(=O)c1cc(-c2cccs2)nn1-c1ccccc1	inactive	–
O=S1(=O)N[C@H](Cc2ccccc2)COc2cccc(N3CCN(Cc4ccccc4F)CC3)c21	inconclusive: 89.1 µM [inhibitor, single point]	–
COc1cc(-c2cc(OC)c3c(C)oc(C)c3c(=O)c2)ccc1O	inconclusive: 10 µM [inhibitor, full curve]	–
Cc1csc(NC(=O)c2occc2-c2ccccc2)n1	inactive	–
COc1ccc(NC(=O)Cc2cc(Cl)c3c(c2)OCCO3)cc1S(=O)(=O)N(C)C	inconclusive: 56.2 µM [inhibitor, partial curve, poor fit]	–
Cc1ccc(NC(=O)CC2CCCN(c3cnn(CC4CC4)c(=O)c3)C2)cc1 (stereo unspecified)	inconclusive: 22.4 µM [inhibitor, partial curve, poor fit]	–
Cc1ccc(NC(=O)CSc2n[nH]c(=O)c3cc(-c4ccco4)nn23)cc1F	inconclusive: 22.4 µM [inhibitor, partial curve, poor fit]	–
Cc1cccc(NC(=O)C2CCN(c3nc4ccccc4[nH]3)CC2)c1C	inconclusive: 126 µM [inhibitor, partial curve, poor fit]	–
COc1ccc(OC)c(C(=O)CSc2nnnn2C)c1	inactive	–
Oc1ccc([C@@H]2Oc3ccc(O)cc3[C@@H]3CCC[C@@H]32)cc1	inconclusive: 5.44 µM [inhibitor, partial curve, poor fit]	–
O=C(Nc1ccc(Oc2ccccc2)cc1)O[C@@H]1CO[C@H]2[C@@H]1OC[C@@H]2NC(=S)Nc1cccc2ccccc12	inconclusive: 70.8 µM [inhibitor, single point]	–
CC(C)Oc1cccc2c1c(NC(=O)CCc1cc(=O)[nH]o1)nn2C	inactive	–
O=C(NC1CC1)c1cc2c(s1)-c1ccccc1OC2	inconclusive: 100 µM [inhibitor, single point]	–
O=C(Nc1ccc2nc(SCC(=O)N3CCCC3)sc2c1)c1cccc(Br)c1	inconclusive: 2.51 µM [inhibitor, full curve, poor fit]	–

SMILES	Potency	activity change, negative = inhibition
COC(=O)c1ccc(Cl)cc1NC(=O)/C=C/c1ccc(C)o1	inconclusive: 44.7 µM [inhibitor, partial curve]	–
Cc1ccc(S(=O)(=O)CCC(=O)NC2CCCCC2)cc1	inconclusive: 50.1 µM [inhibitor, partial curve, poor fit]	–
CCOP(=O)(OCC)C(NC(C)=O)C(=O)c1ccccc1 (stereo unspecified)	inactive	–
CCCCCn1nnnc1-c1nc2cc(C)c(C)cc2[nH]c1=O	inconclusive: 44.7 µM [inhibitor, partial curve, poor fit]	–
Cc1cc2c(SCC(=O)Nc3ccccc3O)ncnc2s1	inactive	–
O=C1C(Cl)=C(Oc2ccccc2)C(=O)c2ccccc21	active: 11.2 µM	–
CC(=O)NS(=O)(=O)c1ccc(NC(=O)[C@@H]2CCCN2S(=O)(=O)c2ccc(Cl)cc2)cc1	inconclusive: 39.8 µM [inhibitor, partial curve, poor fit]	–
COc1cc(NC(=O)COc2ccc(F)cc2)nc(OC)n1	inactive	–
CN(C)CCCn1c(-c2cccc(OC(F)(F)C(F)F)c2)n[nH]c1=S	inconclusive: 44.7 µM [inhibitor, partial curve, poor fit]	–
CC(Sc1nnc(-c2ccncc2)n1C)C(=O)Nc1nccs1 (stereo unspecified)	inconclusive: 31.6 µM [inhibitor, partial curve, poor fit]	–
COc1cc(C#N)ccc1OCC(=O)c1ccc2c(c1)OCCCO2	inconclusive: 112 µM [inhibitor, partial curve, poor fit]	–
COC(=O)c1ccc(NC(=O)C2CCN(c3oc(-c4ccco4)nc3C#N)CC2)cc1	inconclusive: 44.7 µM [inhibitor, partial curve, poor fit]	–
CCCOc1c(Cl)cc(/C=C/C(=O)c2ccc(O)c(OC)c2)cc1OC	inconclusive: 56.2 µM [inhibitor, partial curve, poor fit]	–
CCOCCCN1C(=O)c2[nH]nc(-c3ccccc3O)c2C1c1ccc(CC)cc1 (stereo unspecified)	inconclusive: 39.8 µM [inhibitor, partial curve, poor fit]	–
COC(=O)C(C)Sc1nnc(SC(C)C(=O)OC)s1 (stereo unspecified)	inconclusive: 39.8 µM [inhibitor, partial curve, poor fit]	–
COc1cc(C(=O)NCC2CCCO2)cc(Cl)c1OCC(C)C (stereo unspecified)	inactive	–
COc1cccc(/C=N/Nc2ccc(C(=O)O)cc2)c1O	inconclusive: 50.1 µM [inhibitor, partial curve, poor fit]	–
COc1ccc(C)cc1S(=O)(=O)N1CCCC(N2CCOCC2)C1 (stereo unspecified)	inconclusive: 100 µM [inhibitor, partial curve, poor fit]	–
O=C(N/N=C/c1cc2c3c(c1O)CCCN3CCC2)c1ccccc1O	inconclusive: 70.8 µM [inhibitor, partial curve, poor fit]	–
COc1cccc([S+](=O)([O-])N2CCC(N3CCCOC3=O)CC2)c1	inconclusive: 112 µM [inhibitor, single point]	–
Cn1c(N)c(C(=O)Nc2ccc3ccccc3c2)sc1=S	inconclusive: 50.1 µM [inhibitor, partial curve, poor fit]	–
COc1ccc(C(=O)c2c(-c3ccc(OC)cc3)oc3ccc(-c4cc(OC)c(OC)c(OC)c4)cc23)cc1	inconclusive: 28.2 µM [inhibitor, partial curve, poor fit]	–
